This is an account of results in PubChem BioAssay AID248 (DTP/NCI, 2004).

This assay has as its system L1210 leukemia ip in BDF1 mice, survival T/C. Nature of the assay: NCI In Vivo Anticancer Drug Screen. Data for tumor model L1210 Leukemia (intraperitoneal) in B6D2F1 (BDF1) mice. Conditions: T/C endpoint: mean survival time, higher T/C = longer survival.

The list does not hold the whole screen: it covers a few groups of compounds. Not every dose and run of a compound is shown. T/C is the treated group as % of the vehicle group. Where survival is the endpoint, this PubChem deposit counts one and a half times the control or more as active, and values a quarter to a half above the control carry no call in these data; other NCI protocols may use other cut-offs. Some entries show no survivor count and are marked so; the dose need not have been tolerated. Schedules are NCI's codes, read here as Q, the interval in days (D) or hours (H), X, the number of doses. Some entries were tested several times; the results are listed from low to high. Some schedules carry Z or #; the key to these is not given.

In the case of `Cc1cc(C)c2nc(CN(CCCl)CCCl)[nH]c2c1`, the T/C is 96 [survivor count not shown] and 103 % of control [survivor count not shown] (dose: 12.0 mg/kg/injection, schedule: Q01DX Z (ip), vehicle: methylcellulose (MC)); 98 % of control [survivor count not shown] (dose: 12.5 mg/kg/injection, schedule: Q01DX010 (ip), vehicle: carboxymethylcellulose (CMC)); 96 [survivor count not shown] and 109 % of control [survivor count not shown] (dose: 18.0 mg/kg/injection, schedule: Q01DX Z (ip), vehicle: methylcellulose (MC)); 108 % of control [survivor count not shown] (dose: 21.0 mg/kg/injection, schedule: Q01DX Z (ip), vehicle: carboxymethylcellulose (CMC)); 93 % of control [survivor count not shown] (dose: 25.0 mg/kg/injection, schedule: Q01DX010 (ip), vehicle: carboxymethylcellulose (CMC)); 106 [survivor count not shown] and 117 % of control [survivor count not shown] (dose: 27.0 mg/kg/injection, schedule: Q01DX Z (ip), vehicle: methylcellulose (MC)). In addition, the T/C by setting is: (dose: 31.0 mg/kg/injection, schedule: Q01DX Z (ip), vehicle: carboxymethylcellulose (CMC)) 119 % of control [survivor count not shown]; (dose: 40.5 mg/kg/injection, schedule: Q01DX Z (ip), vehicle: methylcellulose (MC)) 106 [survivor count not shown] and 107 % of control [survivor count not shown]; (dose: 47.0 mg/kg/injection, schedule: Q01DX Z (ip), vehicle: carboxymethylcellulose (CMC)) 125 % of control [survivor count not shown]; (dose: 50.0 mg/kg/injection, schedule: Q01DX010 (ip), vehicle: carboxymethylcellulose (CMC)) 116 % of control [survivor count not shown]; (dose: 60.0 mg/kg/injection, schedule: Q01DX Z (ip), vehicle: carboxymethylcellulose (CMC)) 105 % of control [survivor count not shown]; (dose: 61.0 mg/kg/injection, schedule: Q01DX Z (ip), vehicle: carboxymethylcellulose (CMC)) 125 % of control [survivor count not shown]. Moreover, the T/C by setting is: (dose: 90.0 mg/kg/injection, schedule: Q01DX Z (ip), vehicle: carboxymethylcellulose (CMC)) 103 % of control [survivor count not shown]; (dose: 91.5 mg/kg/injection, schedule: Q01DX Z (ip), vehicle: carboxymethylcellulose (CMC)) 125 % of control [survivor count not shown]; (dose: 100.0 mg/kg/injection, schedule: Q01DX010 (ip), vehicle: carboxymethylcellulose (CMC)) 98 % of control [survivor count not shown]; (dose: 120.0 mg/kg/injection, schedule: Q01DX Z (ip), vehicle: carboxymethylcellulose (CMC)) 106 % of control [survivor count not shown]; (dose: 137.0 mg/kg/injection, schedule: Q01DX Z (ip), vehicle: carboxymethylcellulose (CMC)) 88 % of control [survivor count not shown].

As to `O=Cc1cc(N(CCCl)CCCl)ccc1O`, the T/C by setting is: (dose: 5.0 mg/kg/injection, schedule: Q01DX015 (ip), vehicle: carboxymethylcellulose (CMC)) 104 [survivor count not shown] and 121 % of control [survivor count not shown]; (dose: 9.0 mg/kg/injection, schedule: Q01DX015 (ip), vehicle: carboxymethylcellulose (CMC)) 110 [survivor count not shown] and 144 % of control [survivor count not shown]; (dose: 15.0 mg/kg/injection, schedule: Q01DX015 (ip), vehicle: carboxymethylcellulose (CMC)) 122 [survivor count not shown] and 133 % of control [survivor count not shown]; (dose: 22.0 mg/kg/injection, schedule: Q01DX001 (ip), vehicle: carboxymethylcellulose (CMC)) 118 % of control [survivor count not shown]; (dose: 25.0 mg/kg/injection, schedule: Q01DX015 (ip), vehicle: carboxymethylcellulose (CMC)) 110 [survivor count not shown] and 111 % of control [survivor count not shown]; (dose: 33.0 mg/kg/injection, schedule: Q01DX001 (ip), vehicle: carboxymethylcellulose (CMC)) 116 % of control [survivor count not shown]. For the same compound, the T/C is 123 [survivor count not shown] and 125 % of control [survivor count not shown] (dose: 50.0 mg/kg/injection, schedule: Q01DX001 (ip), vehicle: carboxymethylcellulose (CMC)); 132 % of control [survivor count not shown] (dose: 75.0 mg/kg/injection, schedule: Q01DX001 (ip), vehicle: carboxymethylcellulose (CMC)); 107 % of control [survivor count not shown] (dose: 100.0 mg/kg/injection, schedule: Q01DX001 (ip), vehicle: carboxymethylcellulose (CMC)); 97 % of control [survivor count not shown] (dose: 400.0 mg/kg/injection, schedule: Q01DX001 (ip), vehicle: carboxymethylcellulose (CMC)).

For `NC1CCCCC1.O=P(O)(NC1CCCCC1)N(CCCl)CCCl`, the T/C is 102 % of control [survivor count not shown] (dose: 5.0 mg/kg/injection, schedule: Q01DX Z (ip), vehicle: water); 101 % of control [survivor count not shown] (dose: 10.0 mg/kg/injection, schedule: Q01DX Z (ip), vehicle: water); 101 % of control [survivor count not shown] (dose: 20.0 mg/kg/injection, schedule: Q01DX Z (ip), vehicle: water); 137 % of control [survivor count not shown] (dose: 40.0 mg/kg/injection, schedule: Q01DX013 (ip), vehicle: water); 135 % of control [survivor count not shown] (dose: 80.0 mg/kg/injection, schedule: Q01DX013 (ip), vehicle: water).

On to `OCC1OC(O)C(O)C(N(CCCl)CCCl)C1O` (stereo unspecified), for which the T/C is, setting by setting: (dose: 0.07 mg/kg/injection, schedule: Q01DX Z (ip), vehicle: saline) 100 % of control [survivor count not shown]; (dose: 0.11 mg/kg/injection, schedule: Q01DX Z (ip), vehicle: saline) 108 % of control [survivor count not shown]; (dose: 0.17 mg/kg/injection, schedule: Q01DX Z (ip), vehicle: saline) 111 [survivor count not shown] and 129 % of control [survivor count not shown]; (dose: 0.26 mg/kg/injection, schedule: Q01DX Z (ip), vehicle: saline) 114 [survivor count not shown] and 132 % of control [survivor count not shown]; (dose: 0.4 mg/kg/injection, schedule: Q01DX Z (ip), vehicle: saline) 100 [survivor count not shown], 138 [survivor count not shown], 146 % of control [survivor count not shown]; (dose: 0.6 mg/kg/injection, schedule: Q01DX Z (ip), vehicle: saline) 91 [survivor count not shown], 119 [survivor count not shown], 155 % of control [survivor count not shown]. Further, the T/C runs as follows: (dose: 0.9 mg/kg/injection, schedule: Q01DX Z (ip), vehicle: saline) 103 [survivor count not shown] and 131 % of control [survivor count not shown]; (dose: 1.35 mg/kg/injection, schedule: Q01DX Z (ip), vehicle: saline) 104 [survivor count not shown] and 110 % of control [survivor count not shown]; (dose: 1.5 mg/kg/injection, schedule: Q01DX Z (ip), vehicle: saline) 106 % of control [survivor count not shown].
